Test results as given in article doi:10.1101/2019.12.16.876623 (bioRxiv, 2019).
These are yes or no findings as the source states them, for the method shown. For some of these results: Binding seen in cells or lysates may run through a third protein. Some binding calls cover weakened binding; strength is not graded here. Where a sequence is shown, tags or fusion partners need not be part of it. Blank lines part the entries; values can stand above or below the binder they belong to.

What was measured:
[1] = target: Mlh3-Flag (Mlh3 with an internal His6-Flag3 tag) (S. cerevisiae) (UniProt Q12083); test: co-IP
Cdc5-TAP (S. cerevisiae) = target: T1, Cdc5-TAP (S. cerevisiae) (UniProt P32562); test: co-IP
T1 sequence: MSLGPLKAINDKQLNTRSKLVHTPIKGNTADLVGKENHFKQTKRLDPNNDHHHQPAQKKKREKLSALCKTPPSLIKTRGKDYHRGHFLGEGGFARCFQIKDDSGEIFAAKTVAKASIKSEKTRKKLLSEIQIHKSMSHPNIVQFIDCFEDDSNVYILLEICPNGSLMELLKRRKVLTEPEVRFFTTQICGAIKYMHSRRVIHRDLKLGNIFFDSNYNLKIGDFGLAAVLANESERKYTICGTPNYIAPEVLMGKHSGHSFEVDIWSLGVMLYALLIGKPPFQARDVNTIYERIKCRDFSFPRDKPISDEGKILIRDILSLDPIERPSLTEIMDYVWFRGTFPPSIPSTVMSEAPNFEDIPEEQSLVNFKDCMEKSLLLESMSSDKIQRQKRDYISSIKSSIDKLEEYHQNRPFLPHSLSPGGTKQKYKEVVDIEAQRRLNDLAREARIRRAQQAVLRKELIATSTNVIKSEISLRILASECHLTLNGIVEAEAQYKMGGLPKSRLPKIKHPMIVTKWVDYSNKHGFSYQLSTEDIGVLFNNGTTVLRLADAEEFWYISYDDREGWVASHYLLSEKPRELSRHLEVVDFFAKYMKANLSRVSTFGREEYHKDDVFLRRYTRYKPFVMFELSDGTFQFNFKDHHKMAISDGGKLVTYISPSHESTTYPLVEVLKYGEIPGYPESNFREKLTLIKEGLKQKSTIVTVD

Exo1-TAP (S. cerevisiae) = target: T2, Exo1-TAP (S. cerevisiae) (UniProt P39875); test: co-IP
T2 sequence: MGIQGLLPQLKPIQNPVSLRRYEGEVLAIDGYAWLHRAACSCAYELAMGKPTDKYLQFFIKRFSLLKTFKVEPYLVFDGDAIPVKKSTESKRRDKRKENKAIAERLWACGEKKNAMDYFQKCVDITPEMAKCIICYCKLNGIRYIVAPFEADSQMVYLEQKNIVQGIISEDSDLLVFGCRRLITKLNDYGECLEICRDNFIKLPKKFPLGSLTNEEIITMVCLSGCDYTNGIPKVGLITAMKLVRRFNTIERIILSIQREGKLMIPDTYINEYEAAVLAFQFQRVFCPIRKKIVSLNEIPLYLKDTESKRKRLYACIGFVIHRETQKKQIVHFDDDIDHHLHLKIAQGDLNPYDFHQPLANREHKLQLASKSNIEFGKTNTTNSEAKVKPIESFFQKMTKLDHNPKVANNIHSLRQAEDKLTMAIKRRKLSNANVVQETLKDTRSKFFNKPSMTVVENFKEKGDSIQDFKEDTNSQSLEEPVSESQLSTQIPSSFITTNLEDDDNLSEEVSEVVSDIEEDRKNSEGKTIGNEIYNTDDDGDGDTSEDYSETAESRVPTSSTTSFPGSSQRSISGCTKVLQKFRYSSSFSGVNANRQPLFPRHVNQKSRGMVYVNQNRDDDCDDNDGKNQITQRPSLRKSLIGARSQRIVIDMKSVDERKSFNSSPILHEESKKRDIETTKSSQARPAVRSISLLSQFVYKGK

Msh4-TAP (S. cerevisiae) = target: T3, Msh4-TAP (S. cerevisiae) (UniProt P40965); test: co-IP
T3 sequence: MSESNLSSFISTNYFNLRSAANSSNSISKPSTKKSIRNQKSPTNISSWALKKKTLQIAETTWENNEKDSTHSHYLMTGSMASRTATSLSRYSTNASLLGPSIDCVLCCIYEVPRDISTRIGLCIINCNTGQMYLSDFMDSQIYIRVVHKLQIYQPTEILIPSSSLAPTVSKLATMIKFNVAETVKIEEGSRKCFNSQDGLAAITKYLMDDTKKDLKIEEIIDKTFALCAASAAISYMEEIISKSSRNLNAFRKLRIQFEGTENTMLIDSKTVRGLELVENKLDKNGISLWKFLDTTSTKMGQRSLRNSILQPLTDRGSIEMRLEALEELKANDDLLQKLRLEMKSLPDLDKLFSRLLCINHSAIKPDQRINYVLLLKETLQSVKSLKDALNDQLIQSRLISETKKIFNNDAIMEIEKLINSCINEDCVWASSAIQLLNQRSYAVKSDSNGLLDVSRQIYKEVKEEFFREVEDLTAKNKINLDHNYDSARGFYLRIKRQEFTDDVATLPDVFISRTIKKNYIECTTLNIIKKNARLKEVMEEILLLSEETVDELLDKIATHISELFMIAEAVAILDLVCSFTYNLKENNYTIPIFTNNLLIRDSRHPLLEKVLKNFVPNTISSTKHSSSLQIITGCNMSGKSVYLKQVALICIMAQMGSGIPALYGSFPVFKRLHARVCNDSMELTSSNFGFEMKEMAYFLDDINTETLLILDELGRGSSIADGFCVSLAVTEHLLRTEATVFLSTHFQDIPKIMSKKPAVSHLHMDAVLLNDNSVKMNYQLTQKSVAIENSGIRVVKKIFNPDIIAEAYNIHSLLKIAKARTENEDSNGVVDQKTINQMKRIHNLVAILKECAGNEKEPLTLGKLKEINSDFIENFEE

[2] = target: T4, GAL4-BD-Exo1 (S. cerevisiae) (UniProt P39875); test: two-hybrid
T4 sequence: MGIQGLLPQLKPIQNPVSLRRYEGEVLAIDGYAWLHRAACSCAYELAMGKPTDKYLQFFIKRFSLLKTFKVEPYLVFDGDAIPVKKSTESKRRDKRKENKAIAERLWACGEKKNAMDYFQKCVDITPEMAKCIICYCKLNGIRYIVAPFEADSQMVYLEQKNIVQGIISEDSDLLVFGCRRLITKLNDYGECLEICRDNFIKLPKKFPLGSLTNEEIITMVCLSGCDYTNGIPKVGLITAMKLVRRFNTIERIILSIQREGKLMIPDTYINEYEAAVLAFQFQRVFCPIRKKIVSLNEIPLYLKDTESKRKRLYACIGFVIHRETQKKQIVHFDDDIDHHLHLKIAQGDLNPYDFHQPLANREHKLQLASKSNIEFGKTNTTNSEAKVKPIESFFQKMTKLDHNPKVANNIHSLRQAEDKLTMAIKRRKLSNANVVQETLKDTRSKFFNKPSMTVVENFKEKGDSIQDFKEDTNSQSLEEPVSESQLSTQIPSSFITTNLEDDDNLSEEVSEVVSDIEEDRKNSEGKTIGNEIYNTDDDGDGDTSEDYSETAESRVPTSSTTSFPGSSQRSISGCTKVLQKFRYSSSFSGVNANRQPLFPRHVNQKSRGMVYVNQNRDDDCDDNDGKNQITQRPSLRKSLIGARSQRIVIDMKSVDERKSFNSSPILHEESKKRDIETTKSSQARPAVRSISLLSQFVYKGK

[3] = target: T5, GAL4-BD-Exo1-cid (R570E I572D G574A) (S. cerevisiae) (UniProt P39875); test: two-hybrid
T5 sequence: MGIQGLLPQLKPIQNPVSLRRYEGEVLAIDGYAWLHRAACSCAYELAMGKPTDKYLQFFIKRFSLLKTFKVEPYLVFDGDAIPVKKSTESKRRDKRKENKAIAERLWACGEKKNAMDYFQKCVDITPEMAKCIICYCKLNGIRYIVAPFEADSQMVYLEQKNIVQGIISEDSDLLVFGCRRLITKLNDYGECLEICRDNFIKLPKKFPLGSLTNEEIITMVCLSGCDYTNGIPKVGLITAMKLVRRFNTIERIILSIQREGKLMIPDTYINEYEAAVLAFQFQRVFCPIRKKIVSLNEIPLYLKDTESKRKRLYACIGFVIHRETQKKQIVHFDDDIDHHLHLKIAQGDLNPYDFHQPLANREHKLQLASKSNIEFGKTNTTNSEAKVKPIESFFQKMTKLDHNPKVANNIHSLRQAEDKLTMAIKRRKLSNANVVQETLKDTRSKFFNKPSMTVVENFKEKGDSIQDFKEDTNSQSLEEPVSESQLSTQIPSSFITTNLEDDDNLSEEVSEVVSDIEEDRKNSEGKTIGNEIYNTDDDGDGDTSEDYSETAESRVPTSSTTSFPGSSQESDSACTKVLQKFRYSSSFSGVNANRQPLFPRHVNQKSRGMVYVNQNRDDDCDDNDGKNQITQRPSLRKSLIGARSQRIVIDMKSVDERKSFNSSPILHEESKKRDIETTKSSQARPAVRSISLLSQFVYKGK

[4] = target: T6, GAL4-BD-Exo1 (531 to 591) (S. cerevisiae) (UniProt P39875); test: two-hybrid
T6 sequence: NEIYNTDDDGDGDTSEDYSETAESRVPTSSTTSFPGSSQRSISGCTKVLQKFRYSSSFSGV

binding [1]: no binding
B1: Mlh3-Flag (Mlh3 with an internal His6-Flag3 tag) (protein, UniProt Q12083 1-715)
chain: MSQHIRKLDSDVSERLKSQACTVSLASAVREIVQNSVDAHATTIDVMIDLPNLSFAVYDDGIGLTRSDLNILATQNYTSKIRKMNDLVTMKTYGYRGDALYSISNVSNLFVCSKKKDYNSAWMRKFPSKSVMLSENTILPIDPFWKICPWSRTKSGTVVIVEDMLYNLPVRRRILKEEPPFKTFNTIKADMLQILVMHPMISLNVQYTDKLRINTEVLFRSKNITEGLTKHQQMSQVLRNVFGAIIPPDMLKKVSLKFNEYQIEGIISKMPVGLKDLQFIYINGRRYADSAFQGYVDSLFQAQDFGEKGMSLLKTKSVGKPYRSHPVFILDVRCPQTIDDLLQDPAKKIVKPSHIRTIEPLIVKTIRSFLTFQGYLTPDKSDSSFEIVNCSQKTATLPDSRIQISKRNQVLNSKMKIARINSYIGKPAVNGCRINNSTINYEKIKNIRIDGQKSRLRNKLSSRPYDSGFTEDYDSIGKTITDFSISRSVLAKYEVINQVDKKFILIRCLDQSNCPLLVLVDQHACDERIRLEELFYSLLTEVVTGTFVARDLKDCCIEVDRTEADLFKHYQSEFKKWGIGYETIEGTMETSLLEIKTLPEMLTSKYNGDKDYLKMVLLQHAHDLKDFKKLPMDLSHFENYTSVDKLYWWKYSSCVPTVFHEILNSKACRSAVMFGDELTRQECIILISKLSRCHNPFECAHGRPSMVPIAELK

binding (Cdc5-TAP (S. cerevisiae)): binds
binding (Exo1-TAP (S. cerevisiae)): binds
binding (Msh4-TAP (S. cerevisiae)): binds weakly
B2: Mlh1-HA (protein, UniProt P38920 1-769)
chain: MSLRIKALDASVVNKIAAGEIIISPVNALKEMMENSIDANATMIDILVKEGGIKVLQITDNGSGINKADLPILCERFTTSKLQKFEDLSQIQTYGFRGEALASISHVARVTVTTKVKEDRCAWRVSYAEGKMLESPKPVAGKDGTTILVEDLFFNIPSRLRALRSHNDEYSKILDVVGRYAIHSKDIGFSCKKFGDSNYSLSVKPSYTVQDRIRTVFNKSVASNLITFHISKVEDLNLESVDGKVCNLNFISKKSISPIFFINNRLVTCDLLRRALNSVYSNYLPKGNRPFIYLGIVIDPAAVDVNVHPTKREVRFLSQDEIIEKIANQLHAELSAIDTSRTFKASSISTNKPESLIPFNDTIESDRNRKSLRQAQVVENSYTTANSQLRKAKRQENKLVRIDASQAKITSFLSSSQQFNFEGSSTKRQLSEPKVTNVSHSQEAEKLTLNESEQPRDANTINDNDLKDQPKKKQKLGDYKVPSIADDEKNALPISKDGYIRVPKERVNVNLTSIKKLREKVDDSIHRELTDIFANLNYVGVVDEERRLAAIQHDLKLFLIDYGSVCYELFYQIGLTDFANFGKINLQSTNVSDDIVLYNLLSEFDELNDDASKEKIISKIWDMSSMLNEYYSIELVNDGLDNDLKSVKLKSLPLLLKGYIPSLVKLPFFIYRLGKEVDWEDEQECLDGILREIALLYIPDMVPKVDTSDASLSEDEKAQFINRKEHISSLLEHVLFPCIKRRFLAPRHILKDVVEIANLPDLYKVFERC

binding [2]: binds
binding [3]: no binding
binding [4]: binds
B3: GAL4-AD-Cdc5-PBD (domain or fragment, UniProt P32562 340-705)
chain: TFPPSIPSTVMSEAPNFEDIPEEQSLVNFKDCMEKSLLLESMSSDKIQRQKRDYISSIKSSIDKLEEYHQNRPFLPHSLSPGGTKQKYKEVVDIEAQRRLNDLAREARIRRAQQAVLRKELIATSTNVIKSEISLRILASECHLTLNGIVEAEAQYKMGGLPKSRLPKIKHPMIVTKWVDYSNKHGFSYQLSTEDIGVLFNNGTTVLRLADAEEFWYISYDDREGWVASHYLLSEKPRELSRHLEVVDFFAKYMKANLSRVSTFGREEYHKDDVFLRRYTRYKPFVMFELSDGTFQFNFKDHHKMAISDGGKLVTYISPSHESTTYPLVEVLKYGEIPGYPESNFREKLTLIKEGLKQKSTIVTVD
